Data on three substances can be found in article doi:10.1101/2025.08.20.671056.

Sequences of proteins named here, by UniProt entry; tags and fusion partners are left off. A change or cut given only in a name is not applied to a line headed by its entry.
UniProt P62258: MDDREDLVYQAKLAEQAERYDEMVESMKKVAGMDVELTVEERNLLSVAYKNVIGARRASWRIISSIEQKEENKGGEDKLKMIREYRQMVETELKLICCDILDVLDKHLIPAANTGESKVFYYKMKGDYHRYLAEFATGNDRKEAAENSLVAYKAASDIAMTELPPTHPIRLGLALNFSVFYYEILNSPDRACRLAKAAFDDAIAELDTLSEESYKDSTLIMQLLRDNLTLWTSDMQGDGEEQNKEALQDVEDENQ
UniProt P28741: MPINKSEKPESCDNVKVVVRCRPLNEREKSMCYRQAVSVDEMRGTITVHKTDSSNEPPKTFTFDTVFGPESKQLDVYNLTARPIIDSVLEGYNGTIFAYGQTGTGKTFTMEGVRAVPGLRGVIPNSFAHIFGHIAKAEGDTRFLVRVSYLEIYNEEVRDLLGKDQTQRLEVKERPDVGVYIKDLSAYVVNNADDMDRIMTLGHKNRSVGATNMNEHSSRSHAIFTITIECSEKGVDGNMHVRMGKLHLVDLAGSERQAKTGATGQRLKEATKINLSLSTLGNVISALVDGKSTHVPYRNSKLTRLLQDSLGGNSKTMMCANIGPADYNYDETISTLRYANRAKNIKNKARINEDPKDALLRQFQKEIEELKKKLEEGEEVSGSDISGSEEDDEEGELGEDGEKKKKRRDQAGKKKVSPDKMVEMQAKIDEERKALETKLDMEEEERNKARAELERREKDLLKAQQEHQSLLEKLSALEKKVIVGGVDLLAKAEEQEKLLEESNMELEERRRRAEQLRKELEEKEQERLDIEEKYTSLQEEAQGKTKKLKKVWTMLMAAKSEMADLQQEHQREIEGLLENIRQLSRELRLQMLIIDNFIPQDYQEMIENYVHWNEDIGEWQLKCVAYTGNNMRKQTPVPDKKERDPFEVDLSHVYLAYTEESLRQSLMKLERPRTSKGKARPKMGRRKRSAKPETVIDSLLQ

No constants are given. Whether binding was seen depends on the method and setting. In cells and extracts the contact can be indirect. Some results given as binding are weak or reduced against the parent protein; the word gives no strength.

For the assay, the target named is T1, KIF3B-S2 (mouse) (UniProt Q61771).
T1 sequence: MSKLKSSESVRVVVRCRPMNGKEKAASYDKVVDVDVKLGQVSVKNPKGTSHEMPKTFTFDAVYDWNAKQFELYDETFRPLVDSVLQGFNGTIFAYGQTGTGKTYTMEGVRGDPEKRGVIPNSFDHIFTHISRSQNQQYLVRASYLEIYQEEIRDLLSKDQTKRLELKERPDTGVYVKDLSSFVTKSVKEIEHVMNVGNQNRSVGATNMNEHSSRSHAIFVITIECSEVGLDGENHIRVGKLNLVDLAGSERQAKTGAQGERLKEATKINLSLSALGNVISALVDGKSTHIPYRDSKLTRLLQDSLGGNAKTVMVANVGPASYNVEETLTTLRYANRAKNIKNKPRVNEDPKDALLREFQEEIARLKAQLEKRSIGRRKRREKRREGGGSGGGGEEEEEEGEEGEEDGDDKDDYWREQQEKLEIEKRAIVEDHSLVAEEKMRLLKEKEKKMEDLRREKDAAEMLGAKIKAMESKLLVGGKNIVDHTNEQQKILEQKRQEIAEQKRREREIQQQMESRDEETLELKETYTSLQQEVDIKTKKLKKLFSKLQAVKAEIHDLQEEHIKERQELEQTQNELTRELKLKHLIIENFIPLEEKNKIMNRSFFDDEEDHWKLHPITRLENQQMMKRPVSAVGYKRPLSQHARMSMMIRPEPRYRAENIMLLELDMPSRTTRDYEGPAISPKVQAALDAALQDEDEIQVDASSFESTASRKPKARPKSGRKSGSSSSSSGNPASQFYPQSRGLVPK
The assay can be described thus: split reporter.
On to “14-3-3ε(K50E)-S1 (from UniProt P62258 1-255)”, for which the binding result is given as “no binding”.

Turning to 14-3-3ε-S1 (from UniProt P62258 1-255), the binding entry is reported as “binds”. For KIF3A-S1 (from UniProt P28741 1-701) the value was “binds”.
